Results are given in words; binding and its absence hold for the method and conditions named. In cells and extracts the contact can be indirect. Some entries that bind do so weakly or less than the wild type.
Experiments:
[1] = biological target: TGF-β1 produced by MC3T3-E1 cells (mouse (produced by murine MC3T3-E1 cells)) (UniProt P04202); test: co-immunoprecipitation with antibody #274 from MC3T3-E1 medium, Western blot with anti-TGF-β1
[2] = biological target: TGF-β1 produced by MC3T3-E1 cells (mouse (produced by murine MC3T3-E1 cells)) (UniProt P04202); test: complex in MC3T3-E1 culture medium (co-immunoprecipitation)
[3] = biological target: TGF-β1 produced by MC3T3-E1 cells (mouse (produced by murine MC3T3-E1 cells)) (UniProt P04202); test: co-immunoprecipitation with antibody #274 from MC3T3-E1 medium, combined with Western analysis

Protein sequences, listed by entry. Tags and fused reporters are not part of them. Residues count along the entry.
UniProt P04202, residues 30-390: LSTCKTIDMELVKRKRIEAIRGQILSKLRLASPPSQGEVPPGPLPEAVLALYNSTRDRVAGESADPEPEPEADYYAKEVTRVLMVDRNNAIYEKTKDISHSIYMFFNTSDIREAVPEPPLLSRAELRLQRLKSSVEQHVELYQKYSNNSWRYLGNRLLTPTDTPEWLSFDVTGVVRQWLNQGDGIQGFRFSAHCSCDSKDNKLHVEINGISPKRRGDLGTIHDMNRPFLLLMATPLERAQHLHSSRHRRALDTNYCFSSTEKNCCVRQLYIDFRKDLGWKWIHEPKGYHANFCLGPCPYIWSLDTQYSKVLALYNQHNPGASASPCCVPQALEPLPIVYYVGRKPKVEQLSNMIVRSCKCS

Measured: binding

B1: murine LTBP-3 polypeptide (latent TGF-β binding protein-3) (protein)
chain: GRGVGRPGSGAQAGAGRWAQRFKVVFAPVICKRTCLKGQCRDSCQQGSNMTLIGENGHSTDTLTGSAFRVVVCPLPCMNGGQCSSRNQCLCPPDFTGRFCQVPAAGTGAGTGSSGPGWPDRAMSTGPLPPLAPEGESVASKHAIYAVQVIADPPGPGEGPPAQHAAFLVPLGPGQISAEVQAPPPVVNVRVHHPPEASVQVHRIEGPNAEGPASSQHLLPHPKPPHPRPPTQKPLGRCFQDTLPKQPCGSNPLPGLTKQEDCCGSIGTAWGQSKCHKCPQLQYTGVQKPVPVRGEVGADCPQGYKRLNSTHCQDINECAMPGNVCHGDCLNNPGSYRCVCPPGHSLGPLAAQCIADKPEEKSLCFRLVSTEHQCQHPLTTRLTRQLCCCSVGKAWGARCQRCPADGTAAFKEICPGWERVPYPHLPPDAHHPGGKRLLPLPAPDGPPKPQQLPESPSRAPPLEDTEEERGVTMDPPVSEERSVQQSHPTTTTSPPRPYPELISRPSPPTFHRFLPDLPPSRSAVEIAPTQVTETDECRLNQNICGHGQCVPGPSDYSCHCNAGYRSHPQHRYCVDVNECEAEPCGPGKGICMNTGGSYNCHCNRGYRLHVGAGGRSCVDLNECAKPHLCGDGGFCINFPGHYKCNCYPGYRLKASRPPICEDIDECRDPSTCPDGKCENKPGSFKCIACQPGYRSQGGGACRDVNECSEGTPCSPGWCENLPGSYRCTCAQGIRTRTGRLSCIDVDECEAGKVCQDGICTNTPGSFQCQCLSGYHLSRDRSRCEDIDECDFPAACIGGDCINTNGSYRCLCPLGHRLVGGRKCKKDIDECSQDPGLCLPHACENLQGSYVCVCDEGFTLTQDQHGCEEVEQPHHKKECYLNFDDTVFCDSVLATNVTQQECCCSLGAGWGDHCEIYPCPVYSSAEFHSLVPDGKRLHSGQQHCELCIPAHRDIDECILFGAEICKEGKCVNTQPGYECYCKQGFYYDGNLLECVDVDECLDESNCRNGVCENTRGGYRCACTPPAEYSPAQAQCLIPERWSTPQRDVKCAGASEERTACVWGPWAGPALTFDDCCCRQPRLGTQCRPCPPRGTGSQCPTSQSESNSFWDTSPLLLGKSPRDEDSSEEDSDECRCVSGRCVPRPGGAVCECPGGFQLDASRARCVDIDECRELNQRGLLCKSERCVNTSGSFRCVCKAGFTRSRPHGPACLSAAADDAAIAHTSVIDHRGY
binds: [1] | [2] | [3]
